Data published in the supplement of paper PMC11006884.
This is a selection; strong and weak results do not stand in their true shares.

compound: COC(=O)C#Cc1ccccc1 [methyl 3-phenylpropiolate]; test: log2 ratio of iodoacetamide-alkyne labeling of the cysteine site, DMSO over compound (competition); higher = stronger covalent engagement of the cysteine by the compound, active = 1 or more; settings: 500 µM; treatment time 1 h; system: HEK293T cell lysate
Summary of the method: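 Three replicates, each with duplicate channels, were prepared from HEK293T lysate (2 mg/mL) treated with vehicle or electrophile at 500 µM for 1 h at ambient temperature. Iodoacetamide alkyne was then applied for 1 h, and samples were clicked to sCIP-TMT reagents, pooled, trypsin-digested overnight at 37 °C, enriched on streptavidin, acid-eluted and analysed on Orbitrap Eclipse LC-MS/MS with FAIMS, with FragPipe quantification. The log2 competition ratio per cysteine is the mean control-channel divided by the mean compound-channel reporter intensity. Cysteines quantified in only one replicate were left out.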

log2 ratio of iodoacetamide-alkyne labeling, inactive:
WEE1 C251 (UniProt P30291) 0.654
MATR3 C552 (UniProt P43243) 0.21
DUT C222 (UniProt P33316) 0.016
UniProt P41250_C211 -0.0782
UniProt P31270_C93 0.471
RPL4 C3 (UniProt P36578) 0.647
TXLNA C87 (UniProt P40222) 0.0789
MCM5 C355 (UniProt P33992) 0.104
SLC7A1 C628 (UniProt P30825) 0.105
RFC3 C32 (UniProt P40938) 0.04
ALDH1B1 C478 (UniProt P30837) 0.0133
SRI C162 (UniProt P30626) 0.0722
STIP1 C370 (UniProt P31948) 0.241
UniProt P41227_C194 0.116
MYH9 C1437 (UniProt P35579) 0.114
HSPA9 C317 (UniProt P38646) 0.461
PEBP1 C168 (UniProt P30086) 0.0634
RFC2 C88 (UniProt P35250) 0.226
POLR2B C984 (UniProt P30876) 0.013
TMPO C330 (UniProt P42166) 0.471
GDI1 C302 (UniProt P31150) 0.35
ANP32A C123 (UniProt P39687) 0.345
WNT5A C182 (UniProt P41221) 0.308
MYH9 C896 (UniProt P35579) 0.297
HSPA4 C34 (UniProt P34932) 0.0138
RFC3 C11 (UniProt P40938) 0.16
HMOX2 C127 (UniProt P30519) 0.321
LRPPRC C500 (UniProt P42704) 0.141
MDH1 C251 (UniProt P40925) 0.0342
SHMT2 C119 (UniProt P34897) -0.0105
CSTF2 C62 (UniProt P33240) -0.255
HSPA4 C146 (UniProt P34932) 0.0402
RPL3 C114 (UniProt P39023) 0.0808
CTNNA1 C461 (UniProt P35221) 0.32
UQCRC1 C154 (UniProt P31930) 0.369
CUX1 C802 (UniProt P39880) 0.104
UniProt P41214_C271 0.279

Quoted at random: two records from the list.
log2 ratio of iodoacetamide-alkyne labeling, inactive:
UniProt P41227_C194 0.116
CUX1 C802 (UniProt P39880) 0.104
